The record followed here is the supplement of paper PMC10849652.

Chains of the proteins cited; added tags and fusions are not shown. Lines headed by an entry give the natural chain unless they say otherwise; changes in a name come on top.
UniProt Q53QV2: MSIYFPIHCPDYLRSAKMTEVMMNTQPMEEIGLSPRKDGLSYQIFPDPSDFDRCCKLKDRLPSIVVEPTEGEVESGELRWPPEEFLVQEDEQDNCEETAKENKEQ
UniProt Q7Z4F1: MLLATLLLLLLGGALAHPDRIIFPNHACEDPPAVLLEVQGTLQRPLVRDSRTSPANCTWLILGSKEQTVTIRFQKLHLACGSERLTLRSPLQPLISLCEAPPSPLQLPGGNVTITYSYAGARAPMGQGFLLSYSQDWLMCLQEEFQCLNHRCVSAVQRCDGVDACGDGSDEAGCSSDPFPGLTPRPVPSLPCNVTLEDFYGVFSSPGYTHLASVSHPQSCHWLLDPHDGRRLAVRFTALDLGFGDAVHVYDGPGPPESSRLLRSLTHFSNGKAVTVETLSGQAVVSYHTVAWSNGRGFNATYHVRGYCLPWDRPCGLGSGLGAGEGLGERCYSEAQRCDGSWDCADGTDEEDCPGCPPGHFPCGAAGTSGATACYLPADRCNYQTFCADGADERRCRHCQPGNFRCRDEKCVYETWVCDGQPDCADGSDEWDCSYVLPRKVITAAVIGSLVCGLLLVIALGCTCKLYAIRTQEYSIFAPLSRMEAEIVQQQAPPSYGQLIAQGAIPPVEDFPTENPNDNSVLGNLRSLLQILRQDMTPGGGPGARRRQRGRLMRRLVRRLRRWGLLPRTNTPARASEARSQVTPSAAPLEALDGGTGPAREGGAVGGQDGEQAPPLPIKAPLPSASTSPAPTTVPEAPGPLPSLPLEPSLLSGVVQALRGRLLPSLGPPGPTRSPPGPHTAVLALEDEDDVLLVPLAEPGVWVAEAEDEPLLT
UniProt Q9BU23: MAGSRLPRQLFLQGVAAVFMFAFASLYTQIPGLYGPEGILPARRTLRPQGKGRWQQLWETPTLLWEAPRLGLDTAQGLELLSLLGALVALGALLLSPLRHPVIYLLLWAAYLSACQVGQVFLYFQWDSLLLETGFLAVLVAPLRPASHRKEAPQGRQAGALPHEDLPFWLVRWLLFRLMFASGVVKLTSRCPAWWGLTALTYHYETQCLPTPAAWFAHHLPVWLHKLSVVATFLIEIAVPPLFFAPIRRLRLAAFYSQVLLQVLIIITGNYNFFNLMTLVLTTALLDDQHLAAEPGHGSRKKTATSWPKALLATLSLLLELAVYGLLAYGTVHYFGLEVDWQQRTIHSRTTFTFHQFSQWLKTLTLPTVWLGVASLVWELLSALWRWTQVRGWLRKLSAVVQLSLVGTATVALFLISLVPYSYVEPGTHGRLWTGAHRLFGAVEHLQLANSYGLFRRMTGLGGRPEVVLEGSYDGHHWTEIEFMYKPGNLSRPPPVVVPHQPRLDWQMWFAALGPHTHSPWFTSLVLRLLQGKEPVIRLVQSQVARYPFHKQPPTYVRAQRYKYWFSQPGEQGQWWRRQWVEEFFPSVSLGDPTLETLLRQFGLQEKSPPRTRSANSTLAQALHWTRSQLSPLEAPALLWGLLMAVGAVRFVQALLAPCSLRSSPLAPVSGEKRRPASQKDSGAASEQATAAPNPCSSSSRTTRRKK
UniProt Q6NSJ5: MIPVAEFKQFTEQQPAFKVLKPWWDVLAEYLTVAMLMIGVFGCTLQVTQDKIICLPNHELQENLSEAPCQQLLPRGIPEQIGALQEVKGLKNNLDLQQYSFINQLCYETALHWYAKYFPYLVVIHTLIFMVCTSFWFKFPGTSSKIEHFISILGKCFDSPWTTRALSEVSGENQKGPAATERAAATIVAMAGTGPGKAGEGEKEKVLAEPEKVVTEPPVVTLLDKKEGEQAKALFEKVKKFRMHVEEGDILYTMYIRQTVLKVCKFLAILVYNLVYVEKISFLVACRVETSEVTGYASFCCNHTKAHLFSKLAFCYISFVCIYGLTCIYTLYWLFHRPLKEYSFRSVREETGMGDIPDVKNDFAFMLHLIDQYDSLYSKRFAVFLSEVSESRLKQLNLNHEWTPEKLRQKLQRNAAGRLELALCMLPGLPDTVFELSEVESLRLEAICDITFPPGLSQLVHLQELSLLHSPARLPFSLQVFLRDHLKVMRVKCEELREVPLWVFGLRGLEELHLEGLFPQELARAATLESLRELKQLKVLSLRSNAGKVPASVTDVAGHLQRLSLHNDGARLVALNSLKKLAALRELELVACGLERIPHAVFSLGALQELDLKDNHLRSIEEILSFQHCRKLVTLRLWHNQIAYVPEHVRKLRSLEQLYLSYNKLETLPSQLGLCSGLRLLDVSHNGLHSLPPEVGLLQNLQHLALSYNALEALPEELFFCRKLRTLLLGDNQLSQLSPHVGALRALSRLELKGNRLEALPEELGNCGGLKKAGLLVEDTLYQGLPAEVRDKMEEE
UniProt Q8N448: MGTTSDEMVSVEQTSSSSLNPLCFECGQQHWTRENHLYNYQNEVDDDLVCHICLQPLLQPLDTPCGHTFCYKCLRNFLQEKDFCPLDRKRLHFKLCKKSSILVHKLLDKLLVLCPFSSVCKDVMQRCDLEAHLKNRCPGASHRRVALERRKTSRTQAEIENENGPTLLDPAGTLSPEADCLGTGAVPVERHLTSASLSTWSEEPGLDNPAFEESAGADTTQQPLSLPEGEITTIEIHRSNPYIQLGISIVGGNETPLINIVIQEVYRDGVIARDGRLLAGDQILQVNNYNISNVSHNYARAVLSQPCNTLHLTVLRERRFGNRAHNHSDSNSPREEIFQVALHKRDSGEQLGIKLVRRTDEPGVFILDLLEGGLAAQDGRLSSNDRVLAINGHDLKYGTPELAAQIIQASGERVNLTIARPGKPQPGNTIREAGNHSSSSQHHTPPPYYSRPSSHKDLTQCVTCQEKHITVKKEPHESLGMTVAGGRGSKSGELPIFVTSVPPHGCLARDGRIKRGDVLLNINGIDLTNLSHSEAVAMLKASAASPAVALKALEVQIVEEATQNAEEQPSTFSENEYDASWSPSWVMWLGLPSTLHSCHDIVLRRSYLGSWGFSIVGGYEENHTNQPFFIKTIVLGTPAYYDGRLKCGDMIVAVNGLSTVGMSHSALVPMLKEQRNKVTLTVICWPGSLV
UniProt Q86WU2: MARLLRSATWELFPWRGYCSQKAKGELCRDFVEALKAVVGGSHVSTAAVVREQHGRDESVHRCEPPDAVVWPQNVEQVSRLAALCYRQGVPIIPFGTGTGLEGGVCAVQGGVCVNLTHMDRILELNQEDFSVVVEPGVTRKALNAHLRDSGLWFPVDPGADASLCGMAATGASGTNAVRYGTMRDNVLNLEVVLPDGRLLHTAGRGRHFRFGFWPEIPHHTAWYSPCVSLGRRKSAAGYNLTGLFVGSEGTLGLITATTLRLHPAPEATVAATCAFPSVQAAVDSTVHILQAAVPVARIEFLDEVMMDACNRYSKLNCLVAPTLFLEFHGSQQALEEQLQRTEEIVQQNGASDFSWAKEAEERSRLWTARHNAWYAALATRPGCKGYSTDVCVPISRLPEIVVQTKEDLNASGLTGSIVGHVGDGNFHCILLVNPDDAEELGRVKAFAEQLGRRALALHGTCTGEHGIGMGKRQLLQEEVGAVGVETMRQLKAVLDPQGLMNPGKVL
UniProt P02750: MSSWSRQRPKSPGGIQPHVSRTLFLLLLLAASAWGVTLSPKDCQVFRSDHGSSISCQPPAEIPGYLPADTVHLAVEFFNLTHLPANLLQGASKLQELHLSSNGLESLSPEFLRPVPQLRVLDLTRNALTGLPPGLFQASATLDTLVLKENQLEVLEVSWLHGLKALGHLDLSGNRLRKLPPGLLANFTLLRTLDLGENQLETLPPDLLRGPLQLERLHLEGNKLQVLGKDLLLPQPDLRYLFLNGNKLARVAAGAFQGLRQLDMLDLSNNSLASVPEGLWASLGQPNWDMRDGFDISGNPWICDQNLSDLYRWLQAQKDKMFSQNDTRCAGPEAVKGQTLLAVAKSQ
UniProt Q9Y546: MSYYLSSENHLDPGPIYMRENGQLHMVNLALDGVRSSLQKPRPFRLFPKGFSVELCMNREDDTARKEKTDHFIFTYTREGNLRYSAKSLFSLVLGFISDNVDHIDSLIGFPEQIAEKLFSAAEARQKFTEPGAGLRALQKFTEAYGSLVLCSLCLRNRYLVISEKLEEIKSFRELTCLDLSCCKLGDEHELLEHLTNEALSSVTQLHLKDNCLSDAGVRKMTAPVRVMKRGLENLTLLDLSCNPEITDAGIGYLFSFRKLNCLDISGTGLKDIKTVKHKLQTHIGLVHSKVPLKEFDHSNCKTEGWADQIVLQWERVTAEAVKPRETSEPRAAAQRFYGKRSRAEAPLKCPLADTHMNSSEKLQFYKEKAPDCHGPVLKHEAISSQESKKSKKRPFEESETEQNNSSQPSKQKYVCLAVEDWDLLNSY
UniProt Q6ZRR7: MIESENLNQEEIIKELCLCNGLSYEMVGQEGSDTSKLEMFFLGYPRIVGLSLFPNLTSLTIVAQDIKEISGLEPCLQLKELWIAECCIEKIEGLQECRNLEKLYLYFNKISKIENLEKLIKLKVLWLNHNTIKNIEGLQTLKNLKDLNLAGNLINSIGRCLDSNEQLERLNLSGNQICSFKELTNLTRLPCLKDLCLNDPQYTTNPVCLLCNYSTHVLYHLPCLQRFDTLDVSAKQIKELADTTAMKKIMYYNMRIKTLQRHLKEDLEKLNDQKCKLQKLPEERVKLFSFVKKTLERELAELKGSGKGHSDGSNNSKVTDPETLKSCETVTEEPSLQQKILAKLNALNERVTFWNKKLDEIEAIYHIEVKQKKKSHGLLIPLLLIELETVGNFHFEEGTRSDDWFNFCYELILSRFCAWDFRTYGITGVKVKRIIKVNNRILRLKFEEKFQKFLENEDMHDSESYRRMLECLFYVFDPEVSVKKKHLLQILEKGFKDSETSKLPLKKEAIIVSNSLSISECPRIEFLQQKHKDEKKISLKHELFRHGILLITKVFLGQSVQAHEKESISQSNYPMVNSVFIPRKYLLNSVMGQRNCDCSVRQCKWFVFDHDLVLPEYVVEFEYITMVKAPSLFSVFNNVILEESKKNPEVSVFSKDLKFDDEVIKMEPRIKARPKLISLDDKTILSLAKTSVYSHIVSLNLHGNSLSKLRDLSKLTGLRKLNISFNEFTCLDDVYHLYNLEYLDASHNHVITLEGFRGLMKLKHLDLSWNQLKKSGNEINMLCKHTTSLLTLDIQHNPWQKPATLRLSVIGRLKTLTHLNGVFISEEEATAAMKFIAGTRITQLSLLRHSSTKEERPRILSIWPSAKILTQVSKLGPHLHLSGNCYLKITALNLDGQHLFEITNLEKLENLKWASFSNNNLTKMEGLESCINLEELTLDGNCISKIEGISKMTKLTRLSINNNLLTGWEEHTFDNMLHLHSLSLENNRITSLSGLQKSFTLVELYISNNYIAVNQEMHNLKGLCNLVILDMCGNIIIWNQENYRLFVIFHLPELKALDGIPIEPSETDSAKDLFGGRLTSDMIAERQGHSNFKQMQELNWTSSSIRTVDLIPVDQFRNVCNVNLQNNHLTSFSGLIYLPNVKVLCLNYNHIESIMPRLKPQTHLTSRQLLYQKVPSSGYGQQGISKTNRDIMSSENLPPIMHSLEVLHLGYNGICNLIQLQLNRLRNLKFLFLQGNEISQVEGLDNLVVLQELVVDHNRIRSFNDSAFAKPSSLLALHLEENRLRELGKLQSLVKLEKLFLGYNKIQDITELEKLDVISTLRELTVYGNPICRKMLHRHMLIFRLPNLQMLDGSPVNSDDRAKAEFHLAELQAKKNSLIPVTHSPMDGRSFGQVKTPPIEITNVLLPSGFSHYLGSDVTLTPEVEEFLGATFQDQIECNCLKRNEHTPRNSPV
UniProt Q5SW96: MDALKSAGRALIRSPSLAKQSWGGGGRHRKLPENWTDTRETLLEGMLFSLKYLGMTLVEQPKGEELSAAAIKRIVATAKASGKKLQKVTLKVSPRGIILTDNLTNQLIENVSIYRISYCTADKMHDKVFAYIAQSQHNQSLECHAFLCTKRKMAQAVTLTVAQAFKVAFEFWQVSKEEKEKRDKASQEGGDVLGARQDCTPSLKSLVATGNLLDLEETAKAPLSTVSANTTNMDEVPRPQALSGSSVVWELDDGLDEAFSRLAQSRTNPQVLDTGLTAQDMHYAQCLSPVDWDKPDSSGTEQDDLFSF
UniProt Q7L5N7: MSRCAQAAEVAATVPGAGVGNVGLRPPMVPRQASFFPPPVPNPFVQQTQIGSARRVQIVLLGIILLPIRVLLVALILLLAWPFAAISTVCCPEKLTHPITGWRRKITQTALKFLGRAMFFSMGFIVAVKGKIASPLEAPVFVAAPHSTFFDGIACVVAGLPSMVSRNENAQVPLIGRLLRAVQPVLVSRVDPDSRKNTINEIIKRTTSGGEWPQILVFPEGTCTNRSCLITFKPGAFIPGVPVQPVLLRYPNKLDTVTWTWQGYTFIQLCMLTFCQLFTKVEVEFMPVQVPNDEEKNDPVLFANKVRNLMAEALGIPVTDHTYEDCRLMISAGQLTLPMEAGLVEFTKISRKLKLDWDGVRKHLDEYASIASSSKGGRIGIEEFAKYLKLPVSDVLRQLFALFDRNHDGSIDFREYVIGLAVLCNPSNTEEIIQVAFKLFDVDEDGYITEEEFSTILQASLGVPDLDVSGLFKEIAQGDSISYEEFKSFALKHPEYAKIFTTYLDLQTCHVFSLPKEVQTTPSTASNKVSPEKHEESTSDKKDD

Some of the results follow.

Compound in one assay: Cc1cc(Nc2cc(CN3CCOCC3)c3nc(C)c(Cc4ccc(Cl)cc4F)n3n2)n[nH]1 [gandotinib]
In words: log2 fold change, soluble protein after heating vs DMSO (PISA); higher = thermal stabilisation; K562 lysate, 10 uM; active = over 0.2 and 3.5 SD of the protein, either way, in both replicates (recomputed). The gist of the method:
(§1)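 K562 pellets were dounce-homogenised in PBS pH 7.4 containing 1 mM MgCl2, and the crude extract, at 1 mg/mL protein, was exposed to 10 μM compound for 30 min. Aliquots were heated for 3 min across 48°C-58°C, pooled, brought to 0.5% NP-40 at 4°C and spun at 21,000xg for 90 min, with the supernatant taken as soluble protein. TMTpro 16plex LC-MS/MS with equalised channel sums quantified that protein. Values are log-two fold changes in thermal stability relative to solvent controls, taken from duplicates.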
LBH (UniProt Q53QV2): the log2 fold change was inactive: -0.095.

For LONRF2 (UniProt Q1L5Z9), the log2 fold change is inactive: -0.104.

Consider LCORL (UniProt Q8N3X6), for which the log2 fold change is inactive: -0.061.

As to LRP10 (UniProt Q7Z4F1), the log2 fold change was inactive: -0.133.

For the target LMF2 (UniProt Q9BU23), the log2 fold change was inactive: 0.062.

On to LMBR1 isoform 3 (UniProt Q8WVP7), for which the log2 fold change is inactive: -0.059.

With LIN28A (UniProt Q9H9Z2), the log2 fold change is inactive: -0.175.

LRRC8E (UniProt Q6NSJ5): the log2 fold change is inactive: 0.161.

With LATS1 (UniProt O95835), the log2 fold change was inactive: -0.206.

LNX2 (UniProt Q8N448): the log2 fold change was inactive: -0.167.

On to LONP2 (UniProt Q86WA8), for which the log2 fold change was inactive: 0.16.

As to LDHD (UniProt Q86WU2), the log2 fold change is inactive: 0.208.

As to LRG1 (UniProt P02750), the log2 fold change is inactive: 0.065.

Consider LPGAT1 (UniProt Q92604), for which the log2 fold change was inactive: -0.143.

For the target LSR isoform 3 (UniProt Q86X29), the log2 fold change was inactive: 0.008.

Consider LSM11 (UniProt P83369), for which the log2 fold change was inactive: 0.039.

On to LEF1 (UniProt Q9UJU2), for which the log2 fold change is inactive: -0.078.

Turning to LRRC42 (UniProt Q9Y546), the log2 fold change is inactive: -0.149.

On to LDHA isoform 4 (UniProt P00338), for which the log2 fold change was inactive: 0.021.

As to LRRC9 (UniProt Q6ZRR7), the log2 fold change is inactive: -0.488.

Consider LDLRAP1 (UniProt Q5SW96), for which the log2 fold change was inactive: 0.116.

Compound in a further assay: Cc1cc(Nc2cc(N3CCN(C)CC3)nc(Sc3ccc(NC(=O)C4CC4)cc3)n2)n[nH]1 [tozasertib]
Described as above. An outline of the steps:
as §1
As to LBH (UniProt Q53QV2), the log2 fold change is inactive: -0.126.

For LONRF2 (UniProt Q1L5Z9), the log2 fold change is inactive: -0.097.

Turning to LPCAT2 (UniProt Q7L5N7), the log2 fold change was inactive: 0.1.

For the target LRP10 (UniProt Q7Z4F1), the log2 fold change is inactive: -0.144.

Consider LRP5 (UniProt O75197), for which the log2 fold change is inactive: -0.083.

In the case of LMF2 (UniProt Q9BU23), the log2 fold change is inactive: 0.089.

Regarding LITAF (UniProt Q99732), the log2 fold change is inactive: -0.018.

As to LRRC8E (UniProt Q6NSJ5), the log2 fold change was inactive: 0.135.

Consider LRRCC1 (UniProt Q9C099), for which the log2 fold change is inactive: -0.071.

For the target LNX2 (UniProt Q8N448), the log2 fold change is inactive: 0.123.

Turning to LDHD (UniProt Q86WU2), the log2 fold change was inactive: -0.374.

As for LRP6 (UniProt O75581), the log2 fold change was inactive: -0.114.

On to LCA5 (UniProt Q86VQ0), for which the log2 fold change was inactive: -0.194.

On to LRG1 (UniProt P02750), for which the log2 fold change was inactive: -0.02.

Take LPGAT1 (UniProt Q92604): the log2 fold change was inactive: -0.094.

With LIG1 isoform 3 (UniProt P18858), the log2 fold change was inactive: -0.031.

With LSM11 (UniProt P83369), the log2 fold change is inactive: 0.011.

Regarding LRRC25 (UniProt Q8N386), the log2 fold change is inactive: 0.051.

For the target LRRC42 (UniProt Q9Y546), the log2 fold change was inactive: 0.125.

On to LRP1 (UniProt Q07954), for which the log2 fold change is inactive: 0.239.

As to LRRC9 (UniProt Q6ZRR7), the log2 fold change was inactive: 0.053.

Consider LDLRAP1 (UniProt Q5SW96), for which the log2 fold change is inactive: -0.01.

Compound in a further assay: Cc1ccc(-n2nc(C(C)(C)C)cc2NC(=O)Nc2ccc(OCCN3CCOCC3)c3ccccc23)cc1 [doramapimod]
The description is as above. The gist of the method:
as §1
On to LMO4 (UniProt P61968), for which the log2 fold change is inactive: -0.006.

With LONRF2 (UniProt Q1L5Z9), the log2 fold change is inactive: 0.013.

For the target LBHD1 (UniProt Q9BQE6), the log2 fold change is inactive: -0.112.

Take LRRIQ1 (UniProt Q96JM4): the log2 fold change is inactive: -0.073.

In the case of LPCAT2 (UniProt Q7L5N7), the log2 fold change was inactive: -0.011.

LMF2 (UniProt Q9BU23): the log2 fold change was inactive: 0.047.

As for LMBR1 isoform 3 (UniProt Q8WVP7), the log2 fold change is inactive: -0.174.

As to LNX1 (UniProt Q8TBB1), the log2 fold change is inactive: 0.193.

With LINC00526 (UniProt Q96FQ7), the log2 fold change is inactive: 0.008.

LITAF (UniProt Q99732): the log2 fold change was inactive: -0.009.

As to LRRC8E (UniProt Q6NSJ5), the log2 fold change is inactive: -0.058.

Take LRRCC1 (UniProt Q9C099): the log2 fold change was inactive: 0.078.

On to LIMD2 (UniProt Q9BT23), for which the log2 fold change was inactive: 0.011.

For the target LIN52 (UniProt Q52LA3), the log2 fold change was inactive: 0.082.

Turning to LRP6 (UniProt O75581), the log2 fold change was inactive: -0.058.

In the case of LCA5 (UniProt Q86VQ0), the log2 fold change is inactive: 0.042.

Take LRG1 (UniProt P02750): the log2 fold change is inactive: 0.04.

As for LHFPL2 (UniProt Q6ZUX7), the log2 fold change was inactive: -0.064.

Consider LSR isoform 3 (UniProt Q86X29), for which the log2 fold change is inactive: 0.031.

Regarding LSM11 (UniProt P83369), the log2 fold change is inactive: 0.123.

LRRC25 (UniProt Q8N386): the log2 fold change was inactive: 0.112.

Turning to LEF1 (UniProt Q9UJU2), the log2 fold change was inactive: 0.025.

On to LRRC42 (UniProt Q9Y546), for which the log2 fold change is inactive: 0.005.

For the target LRP1 (UniProt Q07954), the log2 fold change was inactive: 0.022.

For the target LRRC9 (UniProt Q6ZRR7), the log2 fold change was inactive: 0.074.

In the case of LDLRAP1 (UniProt Q5SW96), the log2 fold change was inactive: 0.052.

Compound in the next assay: Cc1ccc(NC(=O)c2ccc(CN3CC[C@H](N(C)C)C3)c(C(F)(F)F)c2)cc1Nc1nccc(-c2cncnc2)n1 [bafetinib]
The description is as above. The gist of the method:
as §1
With LOR (UniProt P23490), the log2 fold change was inactive: 0.16.

In the case of LPCAT2 (UniProt Q7L5N7), the log2 fold change was inactive: -0.144.

Turning to LRP10 (UniProt Q7Z4F1), the log2 fold change is inactive: -0.191.

As to LMF2 (UniProt Q9BU23), the log2 fold change is inactive: -0.051.

In the case of LMBR1 isoform 3 (UniProt Q8WVP7), the log2 fold change was inactive: -0.214.

Turning to LIN28A (UniProt Q9H9Z2), the log2 fold change was inactive: -0.061.

For LNX2 (UniProt Q8N448), the log2 fold change was inactive: -0.044.

As for LDHD (UniProt Q86WU2), the log2 fold change is inactive: 0.018.

LIMD2 (UniProt Q9BT23): the log2 fold change is inactive: -0.316.

LRP6 (UniProt O75581): the log2 fold change was inactive: 0.05.

Regarding LRG1 (UniProt P02750), the log2 fold change is inactive: 0.082.

With LHFPL2 (UniProt Q6ZUX7), the log2 fold change is inactive: -0.094.

On to LDLRAP1 (UniProt Q5SW96), for which the log2 fold change is inactive: -0.061.
